Assay results from the supplement of paper PMC3334620.
In all, about 33,000 sequences were measured (“E-score (-0.5 to 0.5)”: median about -8e-05, highest 2% from about 0.23 on). Some of the results follow.

Target: T1, Nrg2 (UniProt P38082)
T1 sequence: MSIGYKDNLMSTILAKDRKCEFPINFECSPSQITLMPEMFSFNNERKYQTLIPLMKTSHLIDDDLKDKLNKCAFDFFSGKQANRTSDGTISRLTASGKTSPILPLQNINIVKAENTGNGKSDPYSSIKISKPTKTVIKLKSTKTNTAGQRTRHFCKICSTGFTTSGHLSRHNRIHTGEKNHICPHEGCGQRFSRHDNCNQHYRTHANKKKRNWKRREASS
Assay: PBM E-score (8-mer binding enrichment) (E-score (-0.5 to 0.5)); higher = stronger / more preferred TF binding
Settings: protein concentration: 100 nM; construct: GST-full length
Experimental: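 Universal 'all 10-mer' protein binding microarrays (Agilent AMADID 015681) probed with GST-tagged S. cerevisiae TFs (full-length or DBD) made by in vitro transcription/translation (PURExpress), about 100-200 nM. Bound TF was detected with fluorescent anti-GST. Each ungapped 8-mer (which stands for itself and its reverse complement) is scored by the PBM enrichment score (E-score), a modified Wilcoxon-Mann-Whitney statistic from -0.5 to +0.5, computed with the Universal PBM Analysis Suite. Scale: above 0.35 generally sequence-specific binding.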

Sequence | PBM E-score
GATCGTGA | -0.0852
CCACGTCA | 0.0201
CGCTCAGC | -0.0441
CGAGTGAA | 0.0132
CGTCTGCA | -0.103
GAAATGTA | 0.142
ATCTAGAC | 0.00931
CTCGAAGA | -0.0616
CATCTCAA | -0.0442
GACTTCCA | -0.0242
GTCTGAGA | -0.148
AAATCTCA | 0.17
CAGAATAC | 0.106
TGACCGCA | -0.0772
CCCCGCAC | -0.108
AATGTAAC | 0.0564
GGAGAGGA | -0.215
AGCAAATC | 0.147
TAAATGTA | 0.0489
GAGGGTTA | -0.0786
CCAATCCG | 0.0817
AGGGTCAC | -0.0206
GTAGTAAA | 0.0445
ACAACTAC | 0.101
CTATCAAG | 0.0817

Sequence | PBM E-score
GGGGCCTA | -0.261
GTCTTCAC | -0.185
ATAATTAC | 0.176
ACGATAAT | 0.0182
ACATAATG | 0.0329
GTCTTCCA | -0.186
GCACGTAA | -0.0988
CGCTATAG | -0.141
ATCCGCAG | 0.164
ATATCGTA | 0.0228
GTTAGGTA | 0.0846
AAGGACAG | 0.0182
CTGCGAAC | -0.189
AATGGAGG | -0.0543
AGATATAC | 0.111
ATAGAGCC | -0.0518
ACAGGAGG | -0.331
GCGACGGA | -0.0205
GGCAGGTA | -0.143
CCAAGGTA | -0.00169
AAAGACTC | -0.11
CCATGCCG | 0.0755
GTGTTAAA | -0.127
ATATTAGA | 0.194
AAAGGAGA | -0.0662

Sequence | PBM E-score
AAGGATAA | -0.105
GGAAGCGA | 0.0555
GCTTGACC | -0.0509
ACCGGCTA | -0.224
ATGTCCGG | 0.0983
AGAAACGC | -0.113
CGTCGTCA | 0.0219
TCGAACCA | 0.0109
ACCGATTC | -0.113
GGCGGTTA | -0.0436
GCTCGTAC | -0.0941
GCAAGAGA | -0.12
AGTCAGGC | 0.106
GAATCATC | -0.0867
CATCTGAA | 0.00669
CGAAACTC | 0.0403
ATAGACTG | -0.0756
AGCAGGAA | -0.0442
AAGGATCT | -0.0426
CCGGAACG | 0.0162
CTGTGATA | 3e-05
ATCCGAAT | 0.251
AGGCTGGG | -0.142
ACCTCTAA | -0.156
CGATATTC | 0.153

Copied from the list:
PBM E-score with ACCTCTAA reads -0.156
PBM E-score with ACCGATTC reads -0.113
PBM E-score with ACCGGCTA reads -0.224
PBM E-score with GCTTGACC reads -0.0509
PBM E-score with GCTCGTAC reads -0.0941
PBM E-score with AAGGATAA reads -0.105
PBM E-score with ATCCGAAT reads 0.251

Next part:

Sequence | PBM E-score
AATACATG | 0.121
TGTATTAA | 0.201
ACGACCAG | -0.0283
CTGTGGTC | -0.0508
AGCATTAA | 0.112
AAACCCCA | 0.114
ACGCGCGC | 0.279
CTATCAGA | -0.205
AGATATGG | 0.155
CCCTGAAA | 0.305
CCTGTAAA | -0.123
AAAGCCAA | 0.043
CGCGAAGA | 0.12
ACTTTTAA | -0.0763
CCACGAGC | -0.085
AGTTTCCC | -0.0308
GATCGGGC | -0.0363
ACCGCGCT | 0.0712
ACTGCGGA | -0.0585
ATCTGCAA | -0.094
ACTCAGCT | 0.049
CCGACTGC | -0.0453
AGGAACGA | -0.126
ACTCTCGC | 0.0592
CAGACTTC | -0.18

Sequence | PBM E-score
AGGAGGTA | -0.224
AGCACGCC | -0.0245
GCAGACAA | 0.203
GGTCCAAA | -0.129
ATTTTAGA | -0.0512
AGACCCAC | 0.0598
ATGGGTTA | 0.0918
GGCCCGAA | 0.16
AGAGAGAT | -0.0221
CCGCTTCA | -0.0401
ATGTACAT | 0.159
TTGGACAA | 0.0354
CGTACCAG | -0.133
AGCCGTCA | -0.108
AGCCACGG | -0.127
AACCATGG | -0.0776
AGATCGTA | -0.148
ATGGTAAT | 0.018
CAGTGCAG | 0.0174
CGTAGCCA | -0.0815
ACGCACGC | 0.162
CTAGGTGA | -0.0714
GCGCTTGA | 0.187
AAACCTGA | 0.0789
ACTGAAGG | -0.0672

Sequence | PBM E-score
ATATTACA | 0.099
GACATCCC | 0.145
AGTCTAGC | -0.157
AATATAAA | 0.233
GAATCGTC | 0.133
GGCAGAAC | 0.088
CGGTTGGC | 0.0567
CTTGGTAA | -0.0811
ATTCGAGG | -0.0167
CTCAACAA | 0.225
GATCCTAA | -0.0855
ATCTTTGG | -0.0421
CCAGAGGG | -0.114
AACAGTGT | -0.00545
AGCCACAT | 0.0809
CGCGACAA | 0.308
CCCATTTA | 0.0205
CGACGATC | 0.146
CACAAGCC | -0.113
ACGTCACT | -0.0195
ATGCCCGA | -0.0666
AGCATAGA | -0.0952
GATTTGGC | -0.0298
CTCACTTC | -0.191
ATCGCAAT | 0.224

Sequence | PBM E-score
CCTCTCGC | 0.0486
TAATATTA | 0.322
CGGCGCAA | 0.119
CCACATAA | -0.012
GCGCGAGA | 0.184
CTTCTTTC | -0.18
TAGACCTA | -0.19
CGTCAAGA | -0.137
CTCGGATA | 0.116
GCTTAAGC | -0.088
CGTAAACC | -0.131
TGAGGTAA | 0.00276
ATGGGGTC | 0.299
CAATAATC | 0.112
AAAGGAGG | -0.252
CGAGGGCC | -0.0174
ATGATCAT | 0.0338
ACGAACGT | 0.0187
CATAGACG | 0.0918
AGGCCGGA | -0.175
GATACACC | 0.0324
CGGAAACA | -0.151
